Results as given in the supplement of paper PMC5355238.
Where a name gives a salt, the structure may show the parent alone. ± gives the standard deviation of the averaged measurements. The list shows a part of the results. Repeats are few or missing, and single values can be far off.

system: Reh; assay: S-phase gammaH2AX median, Z-score vs plate median (drug alone); higher = more S-phase DNA damage; conditions: MK1775 concentration 0 nM; 10 µM; 4 h

Row | Compound | S-phase gammaH2AX median (Z-score)
1 | COc1ccc2c(c1)[C@@]13CCCC[C@H]1[C@@H](C2)NCC3 [3-Methoxy-morphanin hydrochloride] | -0.0639
2 | COc1cc2c(c(OC)c1OC)-c1ccc(OC)c(=O)cc1[C@@H](NC(C)=O)CC2 [Colchicine] | -0.0175
3 | CC(C)C1CNC(C(=O)O)C1CC(=O)O (configuration not stated) [Dihydrokainic acid] | -0.00945
4 | CC[C@@H](CO)NC(=O)[C@@H]1C=C2c3cccc4c3c(cn4C)C[C@H]2N(C)C1 [Methysergide maleate] | 0.132
5 | CCCN(CCC)[C@H]1CCc2c(F)ccc(O)c2C1 [S(-)-UH-301 hydrochloride] | -0.174
6 | c1ccc2c(c1)OCC(C1=NCCN1)O2 (configuration not stated) [Idazoxan hydrochloride] | 0.302
7 | C[C@]12CC[C@@H](O)C[C@@H]1CC[C@@H]1[C@@H]2CC[C@]2(C)[C@@H](C(=O)CO)CC[C@@H]12 [3-alpha,21-Dihydroxy-5-alpha-pregnan-20-one] | -0.0851
8 | C/C=C(/C)C(=O)O[C@H]1C(C)=C2[C@H]([C@@H]1OC(=O)CCCCCCC)[C@@](C)(OC(C)=O)C[C@H](OC(=O)CCC)[C@@]1(O)[C@H]2OC(=O)[C@@]1(C)O [Thapsigargin] | -0.434
9 | COC(=O)c1cc2c(cn1)[nH]c1ccccc12 [Methyl beta-carboline-3-carboxylate] | -0.00945
10 | C[C@@H]1O[C@@H](O[C@H]2C[C@@H](O)[C@]3(CO)[C@H]4[C@H](O)C[C@]5(C)[C@@H]([C@@H]6COC(=O)C6)CC[C@]5(O)[C@@H]4CC[C@]3(O)C2)[C@H](O)[C@H](O)[C@H]1O [Dihydroouabain] | -0.101
11 | CCCN1CCO[C@@H]2c3cc(O)ccc3OC[C@H]21 [S(+)-PD 128,907 hydrochloride] | 0.0284
12 | O=C(O)Cc1cnc[nH]1 [Imidazole-4-acetic acid hydrochloride] | 0.107
13 | O=C(O)[C@@H]1CCN1 [L-azetidine-2-carboxylic acid] | 0.0505
14 | CC(=O)OCC1=C(C(=O)[O-])N2C(=O)[C@@H](NC(=O)CCC[C@@H](N)C(=O)[O-])[C@H]2SC1.[Zn+2] [Cephalosporin C zinc salt] | -0.0388
15 | CN1C(=O)CCS(=O)(=O)C1c1ccc(Cl)cc1 (configuration not stated) [Chlormezanone] | 0.0175
16 | CCCn1c(C)c(C(=O)c2cccc3ccccc23)c2ccccc21 | -0.183
17 | O=P1(N(CCCl)CCCl)NCCCO1 (configuration not stated) [Cyclophosphamide monohydrate] | -0.0363 ± 0.026
18 | O=C1C=CC(=O)C=C1 [p-Benzoquinone] | -0.0621
19 | COc1ccc2c(c1OC)C(=O)OC2C1c2cc3c(cc2CCN1C)OCO3 (single isomer, unassigned; (+)) [(+)-Hydrastine] | -0.0882
20 | C=C1C[C@@H]2[C@H](CC[C@]3(C)C(=O)CC[C@@H]23)[C@@]2(C)C=CC(=O)C=C12 [Exemestane] | 0.164
21 | CC(=O)[C@H]1CC[C@H]2[C@@H]3CC[C@H]4C[C@H](O)CC[C@]4(C)[C@H]3C(=O)C[C@]12C [5alpha-Pregnan-3alpha-ol-11,20-dione] | -0.158
22 | CC(=O)c1c(O)c(C)c(O)c(Cc2c(O)c3c(c(C(=O)/C=C/c4ccccc4)c2O)OC(C)(C)C=C3)c1O [Rottlerin] | 0.151
23 | COc1ccccc1N1CCNCC1 [1-(2-Methoxyphenyl)piperazine hydrochloride] | 0.3
24 | O=C(O)c1cc[c]([Hg][Cl])cc1 [4-Chloromercuribenzoic acid] | 0.0524

Row | Compound | S-phase gammaH2AX median (Z-score)
25 | CC1=NN=C(c2ccc(N)cc2)c2cc3c(cc2C1)OCO3 | -0.173
26 | CCCC(C)(COC(N)=O)COC(=O)NC(C)C (configuration not stated) [Carisoprodol] | -0.0854
27 | C[C@@]12C(=O)OC(=O)[C@]1(C)[C@H]1CC[C@@H]2O1 [Cantharidin] | 0.328
28 | C/C(O)=C(\C#N)C(=O)Nc1cc(Br)ccc1Br | 0.137
29 | NC1CCc2cc(O)c(O)cc2C1 (configuration not stated) [6,7-ADTN hydrobromide] | -0.0441
30 | C[C@]12CCC(=O)C=C1CC[C@@H]1[C@@H]2CC[C@]2(C)C(=O)CC[C@@H]12 [4-Androstene-3,17-dione] | -0.0233
31 | CC(O)C(C)OC(=O)[C@@H]1C[C@@H]2c3cccc4c3c(cn4C(C)C)C[C@H]2N(C)C1 (some centres not stated) [LY-53,857 maleate] | -0.00473
32 | CCCC[N+]1(C)[C@@H]2C[C@@H](OC(=O)[C@H](CO)c3ccccc3)C[C@H]1[C@@H]1O[C@@H]12 (single isomer, unassigned; (-)) [(-)-Scopolamine,n-Butyl-, bromide] | -0.227
33 | c1ccc2sc(C3(N4CCCCC4)CCCCC3)cc2c1 [BTCP hydrochloride] | -0.068
34 | N#C/C(=C\c1ccc(O)c(O)c1)C(N)=S [Tyrphostin 47] | 0.567
35 | C[N+]1(C)C2CCC1CC(OC(=O)c1c[nH]c3ccccc13)C2 (configuration not stated) [3-Tropanylindole-3-carboxylate methiodide] | -0.474
36 | C[C@H]1OC[C@@H](C[N+](C)(C)C)O1 [(+)-cis-Dioxolane iodide] | 0.00194
37 | COc1ccc(OC)c(C(O)C(C)N)c1 (configuration not stated) [Methoxamine hydrochloride] | 0.00473
38 | Clc1ccc(N2CCN(Cc3c[nH]c4ncccc34)CC2)cc1 [L-745,870 hydrochloride] | -0.0993
39 | CCn1cnc2c(Nc3cccc(Cl)c3)nc(N[C@@H]3CCCC[C@@H]3N)nc21 | -0.196
40 | NCCCNCCSP(=O)(O)O [Amifostine] | 0.0621
41 | O=S1(=O)N(CCN2CC=C(c3c[nH]c4cc(F)ccc34)CC2)c2cccc3c2N1CCC3 | -0.183
42 | N#CC(C#N)=Cc1ccc([N+](=O)[O-])c(O)c1 [Tyrphostin AG 126] | -0.507
43 | CCCCCCCCC(=O)NCc1ccc(O)c(OC)c1 [N-Vanillylnonanamide] | -1.05
44 | NCCc1c[nH]c2ccc(C(N)=O)cc12 [5-Carboxamidotryptamine maleate] | 0.0291
45 | Cc1cc2c(C(C)C)c(O)c(O)c(C=O)c2c(O)c1-c1c(C)cc2c(C(C)C)c(O)c(O)c(C=O)c2c1O [Gossypol] | -0.0522
46 | O=c1[nH]c2ccccc2n1C1CCN(CCCC(c2ccc(F)cc2)c2ccc(F)cc2)CC1 [Pimozide] | -0.0899
47 | C=CCN1CC[C@]23CCCC[C@H]2[C@H]1Cc1ccc(O)cc13 [Levallorphan tartrate] | -0.102
48 | CC(=O)NCCc1c[nH]c2ccccc12 [N-Acetyltryptamine] | 0.0214

3 of these compounds in another layout:
Row,Compound,S-phase gammaH2AX median (Z-score)
7,"C[C@]12CC[C@@H](O)C[C@@H]1CC[C@@H]1[C@@H]2CC[C@]2(C)[C@@H](C(=O)CO)CC[C@@H]12 [3-alpha,21-Dihydroxy-5-alpha-pregnan-20-one]",-0.0851
9,COC(=O)c1cc2c(cn1)[nH]c1ccccc12 [Methyl beta-carboline-3-carboxylate],-0.00945
19,"COc1ccc2c(c1OC)C(=O)OC2C1c2cc3c(cc2CCN1C)OCO3 (single isomer, unassigned; (+)) [(+)-Hydrastine]",-0.0882

Carrying on:

Row | Compound | S-phase gammaH2AX median (Z-score)
49 | CC1=C2C[C@H]3[C@@H](CC=C4C[C@@H](O)CC[C@@]43C)[C@@H]2CC[C@]12O[C@@H]1C[C@H](C)CN[C@H]1[C@H]2C [Cyclopamine] | -0.0708
50 | CC(N)c1cccc(Cl)c1Cl (stereo not drawn) [(?)-2,3-Dichloro-alpha-methylbenzylamine hydrochloride] | -0.0283
51 | CCc1c(C(=O)OC)ncc2[nH]c3cc(OC)c(OC)cc3c12 [Methyl 6,7-dimethoxy-4-ethyl-beta-carboline-3-carboxylate] | -0.104
52 | CN(C)C(=O)Oc1ccc[n+](C)c1 [Pyridostigmine bromide] | -0.0686
53 | CN(C)C(=O)Oc1cccc([N+](C)(C)C)c1 [Neostigmine bromide] | -0.818
54 | CNC(=O)Oc1ccc2c(c1)[C@]1(C)CCN(C)[C@@H]1N2C [(-)-Physostigmine] | 0.101
55 | Cc1o[nH]c(=O)c1CC(N)C(=O)O (configuration not stated) [(?)-AMPA hydrobromide] | 0.132
56 | CCN(CCCl)Cc1ccccc1Br [DSP-4 hydrochloride] | -0.0233
57 | CP(=O)(O)CCCN | 0.0291
58 | O=C(CCCN1CCC2(CC1)C(=O)N(CCc1ccc(N=C=S)cc1)CN2c1ccccc1)c1ccc(F)cc1 [N-(p-Isothiocyanatophenethyl)spiperone hydrochloride] | -0.194
59 | CNC(=O)OCC[N+](C)(C)C [Methylcarbamylcholine chloride] | -0.0639
60 | CN1[C@@H]2CC[C@H]1C[C@@H](OC(=O)C(CO)c1ccccc1)C2 (some centres not stated) [Atropine sulfate] | -0.211
61 | c1ccc(CCCN2CCN(CCOC(c3ccccc3)c3ccccc3)CC2)cc1 | -0.23
62 | CC(C)C[C@H]1C(=O)N2CCC[C@H]2[C@]2(O)O[C@](NC(=O)[C@@H]3C=C4c5cccc6[nH]c(Br)c(c56)C[C@H]4N(C)C3)(C(C)C)C(=O)N12 [(+)-Bromocriptine methanesulfonate] | 0.00194
63 | O=C(OC1CCN(CCCl)CC1)C(c1ccccc1)c1ccccc1 [4-Diphenylacetoxy-N-(2-chloroethyl)piperidine hydrochloride] | 0.532
64 | C=CCN1CC[C@]23c4c5ccc(O)c4O[C@H]2/C(=N/N=C2\CC[C@@]4(O)[C@H]6Cc7ccc(O)c8c7[C@@]4(CCN6CC=C)[C@H]2O8)CC[C@@]3(O)[C@H]1C5 [Naloxonazine dihydrochloride] | 0.166
65 | O=C(Cc1ccc(Cl)c(Cl)c1)N1CCCCC1CN1CCCC1 (configuration not stated) | -0.254
66 | C#CCOC(=O)C1=CCCN(C)C1 [Arecaidine propargyl ester hydrobromide] | -0.0175
67 | CNCC(O)c1ccc(O)cc1 (configuration not stated) [(?)-Synephrine] | 0.147
68 | Nc1ncnc2c1ncn2C1OC2COP(O)(=S)O[C@@H]2[C@@H]1O (some centres not stated) [Rp-cAMPS triethylamine] | -0.0466
69 | NCC(CP(=O)(O)O)c1ccc(Cl)cc1 (configuration not stated) [Phaclofen] | 0.0544
70 | N[C@@H](Cn1cc(I)c(=O)[nH]c1=O)C(=O)O [S-5-Iodowillardiine] | -0.34
71 | C[C@]12CCC(=O)C(O)=C1CC[C@@H]1[C@@H]2CC[C@]2(C)C(=O)CC[C@@H]12 [Formestane] | 0.156
72 | c1ccc(C2CC2)c(OCC2=NCCN2)c1 [Cirazoline hydrochloride] | -0.0757

Shown comma-delimited: two of the compounds above
Row,Compound,S-phase gammaH2AX median (Z-score)
50,"CC(N)c1cccc(Cl)c1Cl (stereo not drawn) [(?)-2,3-Dichloro-alpha-methylbenzylamine hydrochloride]",-0.0283
51,"CCc1c(C(=O)OC)ncc2[nH]c3cc(OC)c(OC)cc3c12 [Methyl 6,7-dimethoxy-4-ethyl-beta-carboline-3-carboxylate]",-0.104
